Results from US20200377573A1.
Substitutions are numbered along the chain they refer to. Results are given in words; binding and its absence hold for the method and conditions named. Binding calls can cover weak binding; strength is not graded here. For part of these data: Binding seen in cells or lysates may run through a third protein. Values belong to the binder of their own block, whether it stands above or below them.

Assays:
HTRA1 (cat) (human) [1] = assay: mixing and gel filtration chromatography (Superdex 200)
HTRA1 (cat) (human) [2] = assay: X-ray crystallography of the complex, 2.6 Angstrom
HTRA1 (cat) (human) [3] = assay: X-ray crystallography of the complex
HTRA1 (cat) (human) [4] = assay: immunoprecipitation method: pull-down of His tag-fused HTRA1 (cat) with TALON resin, SDS-PAGE

B1: peptide H218 (designed binder)
chain: DPQFGLFSKYRTPNCLKSEGMACYAYYEPVCGSDMSTYANECTLCMKIREGGHNIKIIRNGPCGG
- binding (HTRA1 (cat) (human) [1]): binds
- binding (HTRA1 (cat) (human) [2]): binds
- binding (HTRA1 (cat) (human) [3]): binds

B2: peptide derivative H321AT_D1G_S16A (designed binder)
chain: B1 chain with D1G, L16A, K17D, S18F, E19D, Y26F
- binding (HTRA1 (cat) (human) [4]): binds

B5: peptide derivative H321AT (designed binder)
chain: B1 chain with L16S, K17D, S18F, E19D, Y26F
- binding (HTRA1 (cat) (human) [4]): binds

B6: peptide H308 (designed binder)
chain: B1 chain with L16S, K17D, S18H, E19A, Y24V, Y26L, A39E, T43V
- binding (HTRA1 (cat) (human) [4]): binds

B7: peptide derivative H308_D1G_S16A (designed binder)
chain: GPQFGLFSKYRTPNCADHAGMACVALYEPVCGSDMSTYENECVLCMKIREGGHNIKIIRNGPCGG
- binding (HTRA1 (cat) (human) [4]): binds

Continued, values first:

- binding (HTRA1 (cat) (human) [4]): binds
B3: peptide derivative H322AT (designed binder)
chain: B1 chain with L16S, K17Q, S18H, Y26L

- binding (HTRA1 (cat) (human) [4]): binds
B4: peptide derivative H322AT_D1G_S16A (designed binder)
chain: B1 chain with D1G, L16A, K17Q, S18H, Y26L
